{"source": "patent US20070078179A1", "about": "“Use of a fibrate and orlistat for the treatment of obesity” (Foumier Laboratories Ireland Limited, priority 2003, published 2007)", "assay": "Effect of fenofibrate and orlistat co-administration on body weight of mice fed a high-fat diet", "type": "in vivo", "settings": "after 6 weeks of treatment; mice with a high-fat diet compared with mice with a standard diet; Dunnett's t test", "note": "At least one compound was matched to its structure with a doubt left.", "data": [{"smiles": "CC(C)OC(=O)C(C)(C)Oc1ccc(C(=O)c2ccc(Cl)cc2)cc1", "note": "[fenofibrate]", "values": [{"measurement": "Difference from mice with a standard diet (normalization of the body weight)", "result": "significant difference"}]}]}
